Source: PubChem BioAssay AID493014 (National Center for Advancing Translational Sciences (NCATS), 2011)
This is one part of the list. These are further read-outs of the screen, such as a control signal, another cell line or another target. No call is given for them. Most of these compounds were active or inconclusive in the main read-out, so they are no random draw. Words in brackets tell the shape of the fitted curve; partial curves, single points and poor fits give uncertain potencies.

Assay: qHTS Assay to Find Inhibitors of Chronic Active B-Cell Receptor Signaling
Conditions: ABC-DLBCL IkBa-CBG/CBR reporter, luminescence ratio (green luciferase fused to IkBa over red control in TMD8 lymphoma cells), 4 h
In short: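 Doxycycline induced both beetle luciferases in TMD8 lymphoma cells; IKK-driven degradation limits the IkappaBalpha-fused green signal, while red luminescence normalises for cell number and nonspecific effects. Compounds tested up to 46 uM, 4 hrs.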

[1] = measured here: CBR red luminescence, cell number
[2] = measured here: IkBa-CBG green luminescence

Row | SMILES | AC50 [1] | AC50 [2]
1 | COC(=O)N/N=C/c1ccccc1 | 25.1 µM [rising, single point] | 
2 | CCOc1ccccc1C(=O)Nc1cc2c(cc1N1CCCC1)n(CC)c(=O)n2CC | 11.2 µM [falling, single point] | 
3 | O=C(NCc1ccco1)C1CCN(C(=O)Cc2ccccc2)CC1 | 6.51 µM [rising, single point] | 
4 | COc1cccc(N2CCN(C(C)C(=O)NC34CC5CC(CC(C5)C3)C4)CC2)c1 (configuration not stated) | 3.16 µM [falling, partial curve, poor fit] | 
5 | Cc1cccc(-n2c3nc(=O)[nH]c(=O)c-3cc3cc([N+](=O)[O-])ccc32)c1 |  | 6.51 µM [falling, partial curve]
6 | Cc1ccc(-c2nc3ccccc3[nH]2)cc1NC(=S)NC(=O)c1ccccc1Br | 1.58 µM [falling, full curve, poor fit] | 
7 | COc1ccc2nc(NC(=O)c3sc4nc(C)cc(C)c4c3N)sc2c1 | 35.5 µM [falling, single point] | 
8 | CCCCC(c1nnnn1CCOC)N1CCN(C(=O)c2ccco2)CC1 (configuration not stated) | 6.51 µM [rising, single point] | 
9 | CCC(C(=O)Nc1ncc(C)s1)c1ccccc1 (configuration not stated) | 7.08 µM [falling, partial curve, poor fit] | 
10 | CCOC(=O)C1=CC[C@H]2c3c(c4ccccc4n3C)C(=O)C1N2S(=O)(=O)c1ccc(C)cc1 | 18.4 µM [falling, single point] | 
11 | O=C1/C(=C/c2ccco2)SC(=S)N1CC1CCCO1 (configuration not stated) | 3.98 µM [rising, partial curve, poor fit] | 
12 | Cc1ccc(N(CCC#N)C(=O)CSc2nnc3ccccn23)cc1 | 23.1 µM [rising, partial curve, poor fit] | 
13 | CCCc1nn(CCc2ccccn2)c(N)c1CC | 8.2 µM [rising, partial curve, poor fit] | 
14 | NS(=O)(=O)c1ccc(NC(=S)NC(=O)c2cccs2)cc1 | 20 µM [falling, partial curve, poor fit] | 
15 | Cc1ccc(S(=O)(=O)NCCC(=O)Nc2cccc(S(=O)(=O)N3CCCC3)c2)cc1C | 18.4 µM [falling, partial curve, poor fit] | 
16 | CCC(C)N(CC(=O)Nc1cccc(C)c1C)C(=O)CCl (configuration not stated) | 20 µM [falling, single point] | 
17 | Cc1oc(C(=O)Nc2ccc(C(=O)O)cc2)cc1COc1ccccc1 | 0.0259 µM [rising, full curve, poor fit] | 
18 | CCOc1ccccc1C1C(C#N)=C(N)Nc2onc(-c3ccccc3)c21 (configuration not stated) | 35.5 µM [falling, single point] | 
19 | O=C(OCC(=O)N1CCc2ccccc2C1)c1cccs1 | 10 µM [falling, single point] | 
20 | O=C(Nc1cc(Cl)cc(Cl)c1)C1C2C=CC3(O2)C1C(=O)N(CCCN1CCOCC1)C3C(=O)NC1CCCCC1 (configuration not stated) | 7.08 µM [rising, full curve, poor fit] | 
21 | COc1cccc(NC(=O)CSc2nc(C)cs2)c1 | 0.366 µM [falling, full curve, poor fit] | 

Row | SMILES | AC50 [1] | AC50 [2]
22 | C=CCn1c(Cc2ccc(OC)cc2)nnc1SCC(N)=O | 1.64 µM [rising, partial curve, poor fit] | 
23 | O=C(O)c1ccc(CS(=O)(=O)c2cccc(C(F)(F)F)c2)o1 | 3.16 µM [rising, single point] | 
24 | CN(C(=O)c1cc2ccccc2o1)c1c(N)n(Cc2ccccc2)c(=O)[nH]c1=O | 6.51 µM [rising, partial curve, poor fit] | 
25 | COc1ccc2oc(C(=O)OCC(=O)NC(=O)c3ccccc3)c(C)c2c1 | 35.5 µM [rising, single point] | 
26 | O=C(N/N=C/c1cccs1)c1cncc(Br)c1 | 22.4 µM [falling, partial curve] | 35.5 µM [falling, single point]
27 | N#Cc1ccsc1NC(=O)COC(=O)c1ccc2ccccc2c1 | 1.84 µM [rising, partial curve, poor fit] | 
28 | c1ccc(-n2ncc3c2ncn2c(C4CCCCC4)nnc32)cc1 | 0.501 µM [rising, full curve, poor fit] | 
29 | CCOc1cc(C(=O)Nc2ccc(N3CCN(S(C)(=O)=O)CC3)cc2)cc(OCC)c1OCC | 2.06 µM [rising, partial curve, poor fit] | 
30 | Cn1c(=O)[nH]c(=O)c2c1nc(N/N=C/C(Br)=C/c1ccccc1)n2CCO | 14.1 µM [rising, partial curve, poor fit] | 
31 | COc1ccc(CCNC(=O)CSc2nn3c(=O)c(C)nnc3s2)cc1OC | 7.08 µM [rising, full curve, poor fit] | 
32 | CCN(CC)CCNC(=O)CCCCn1c(=S)[nH]c2c([nH]c3ccc(OC)cc32)c1=O | 11.2 µM [falling, partial curve, poor fit] | 
33 | CC(/C=C/c1ccco1)=N\NC(=O)c1cccc(Cl)c1 | 0.146 µM [falling, full curve, poor fit] | 
34 | Cc1cc(-c2nnnn2-c2ccc(F)cc2)no1 | 0.631 µM [rising, full curve, poor fit] | 
35 | CCC(CC)C(=O)NCCc1cc2cc(C)c(C)cc2[nH]c1=O | 6.51 µM [falling, single point] | 
36 | Cc1cc2oc(=O)cc(COC(=O)c3n[nH]c4ccccc34)c2cc1C | 3.26 µM [falling, full curve] | 
37 | COc1ccc(C(C)=O)cc1COC(=O)CCC(=O)c1cccs1 | 5.17 µM [falling, single point] | 
38 | CCSc1nc2sc3c(c2c(=O)n1CC)CCC3 | 35.5 µM [rising, single point] | 
39 | O=S(=O)(NCCCN1CCOCC1)c1ccc2ccccc2c1 | 3.16 µM [falling, full curve, poor fit] | 
40 | CCOc1cc(/C=N/NC(=O)CN2CCOCC2)ccc1OCc1ccc(Cl)cc1 | 6.51 µM [rising, single point] | 
41 | Cc1ccc(CCNC(=O)C2CCN(S(=O)(=O)c3ccc4c(c3)NC(=O)C(C)S4)CC2)cc1 (configuration not stated) | 15.8 µM [falling, single point] | 

Given comma-delimited: entries from further up
Row,SMILES,AC50 [1],AC50 [2]
2,CCOc1ccccc1C(=O)Nc1cc2c(cc1N1CCCC1)n(CC)c(=O)n2CC,"11.2 µM [falling, single point]",
3,O=C(NCc1ccco1)C1CCN(C(=O)Cc2ccccc2)CC1,"6.51 µM [rising, single point]",
22,C=CCn1c(Cc2ccc(OC)cc2)nnc1SCC(N)=O,"1.64 µM [rising, partial curve, poor fit]",
